Source: PubChem BioAssay AID1259308 (NCATS, 2017)
Test: 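Genes whose loss raises luciferase production in HEK293 cells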 (primary screen). System: human HEK293 embryonic kidney cells stably expressing firefly luciferase (HEK-CMV-Luc2-Hygro). Reagents: single siRNA against human genes, 0.8 pmol siRNA per well. Time to read-out: 72 h. Read-out: 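Reporter luminescence and viable-cell signal on separate replicate plates, given as percent of non-targeting control and median/MAD z-scores, plus per-cell luciferase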. Scale: total luciferase, z-score and total luciferase, % of control: higher = more reporter protein produced; luciferase per cell, z-score: higher = more reporter output per viable cell; viable cells, % of control: higher = more viable cells. Active means: 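An siRNA counts as active if its total luciferase robust z-score exceeds 3; genes with two or more such siRNAs out of three were retested with fresh siRNAs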. Meaning of the calls: active = raised luciferase; inactive = no rise.
The whole screen tested about 59,000 reagents; below is a random part of them. In the full data, about 1,510 (2.6%) got an active call. 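Calls use total luciferase alone and ignore viability, so some active siRNAs may act by altering cell number.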

| total luciferase, z-score | total luciferase, % of control | luciferase per cell, z-score | viable cells, % of control | Call | Target gene | PubChem SID |
| --- | --- | --- | --- | --- | --- | --- |
| -0.156 | 78.8 | 0.0626 | 86.6 | inactive | POMT2 (protein O-mannosyltransferase 2) | SID160739382 |
| -0.623 | 69.5 | -0.187 | 81.6 | inactive | POMT2 (protein O-mannosyltransferase 2) | SID160739383 |
| -0.498 | 72 | -0.406 | 89.5 | inactive | POMT2 (protein O-mannosyltransferase 2) | SID160739384 |
| -0.606 | 69.8 | -0.799 | 96.3 | inactive | CXCL12 (C-X-C motif chemokine ligand 12) | SID160716519 |
| -1.13 | 59.4 | -1.16 | 90.1 | inactive | CXCL12 (C-X-C motif chemokine ligand 12) | SID160716520 |
| 2.46 | 131 | 0.885 | 116 | inactive | CXCL12 (C-X-C motif chemokine ligand 12) | SID160733736 |
| 0.49 | 91.6 | -0.252 | 109 | inactive | CD1E (CD1e molecule) | SID160738146 |
| -0.43 | 73.3 | -0.696 | 98.4 | inactive | CD1E (CD1e molecule) | SID160738156 |
| 1.42 | 110 | 1.24 | 88.9 | inactive | CD1E (CD1e molecule) | SID160738167 |
| -1.98 | 42.6 | -0.888 | 60.1 | inactive | H3C15 (H3 clustered histone 15) | SID160725051 |
| -0.945 | 63.1 | -1.83 | 114 | inactive | H3C15 (H3 clustered histone 15) | SID160725052 |
| -2.02 | 41.8 | -3.11 | 106 | inactive | H3C15 (H3 clustered histone 15) | SID160727983 |
| 0.51 | 92 | -0.131 | 106 | inactive | HTR3B (5-hydroxytryptamine receptor 3B) | SID160721651 |
| -0.671 | 68.5 | -0.675 | 91.5 | inactive | HTR3B (5-hydroxytryptamine receptor 3B) | SID160721652 |
| 1.59 | 114 | 1.66 | 82 | inactive | HTR3B (5-hydroxytryptamine receptor 3B) | SID160721653 |
| -0.507 | 71.8 | -0.249 | 85.7 | inactive | TMC4 (transmembrane channel like 4) | SID160758569 |
| -1.56 | 50.9 | -1.83 | 91.9 | inactive | TMC4 (transmembrane channel like 4) | SID160758570 |
| -0.816 | 65.7 | -1.07 | 97.1 | inactive | TMC4 (transmembrane channel like 4) | SID160758571 |
| 0.166 | 85.2 | -0.43 | 107 | inactive | TMEM134 (transmembrane protein 134) | SID160734980 |
| -1.78 | 46.5 | -0.94 | 66.6 | inactive | TMEM134 (transmembrane protein 134) | SID160750181 |
| -0.569 | 70.6 | -0.253 | 84.3 | inactive | TMEM134 (transmembrane protein 134) | SID160750182 |
| 1.07 | 103 | 1.48 | 77.9 | inactive | MRGPRG (MAS related GPR family member G) | SID160725169 |
| -1.47 | 52.7 | -1.3 | 82.9 | inactive | MRGPRG (MAS related GPR family member G) | SID160733174 |
| -1.25 | 57.1 | -1.01 | 83.1 | inactive | MRGPRG (MAS related GPR family member G) | SID160733175 |

Sorted by “total luciferase, z-score” (low to high): 2 of the entries above
| total luciferase, z-score | total luciferase, % of control | luciferase per cell, z-score | viable cells, % of control | Call | Target gene | PubChem SID |
| --- | --- | --- | --- | --- | --- | --- |
| -0.606 | 69.8 | -0.799 | 96.3 | inactive | CXCL12 (C-X-C motif chemokine ligand 12) | SID160716519 |
| -0.498 | 72 | -0.406 | 89.5 | inactive | POMT2 (protein O-mannosyltransferase 2) | SID160739384 |
